test: Olfactory description of the olfactorily pure product; conditions: olfactorily pure product after distillation

| SMILES | odor description |
| --- | --- |
| COC(=O)OCCC(C)CCC=C(C)C (racemic) [Example 1, 3,7-dimethyloct-6-en-1-yl methyl carbonate] | fruity-rosy odor with hints of pear and citronella |
| COC(=O)OC/C=C(\C)CCC=C(C)C [Example 2, (E)-3,7-dimethylocta-2,6-dien-1-yl methyl carbonate] | fruity-rosy odor with a pear facet |
| COC(=O)OCCc1ccccc1 [Example 3, methyl phenethyl carbonate] | rosy-floral odor with a slight mushroom facet |
| C=C(C)CCCC(C)CCOC(=O)OC (centres unmarked) [Example 4, 3,7-dimethyloct-7-en-1-yl methyl carbonate] | fruity-rosy odor with pear and banana connotations |
| COC(=O)OC/C=C(\C)CCC=C(C)C [Example 7, (E,Z)-3,7-dimethylocta-2,6-dien-1-yl methyl carbonate] | fruity, floral, rosy odour |
